The results in this text go back to PMC4564097.

By UniProt entry, the sequences of proteins in these tests, tags left out.
UniProt Q92905: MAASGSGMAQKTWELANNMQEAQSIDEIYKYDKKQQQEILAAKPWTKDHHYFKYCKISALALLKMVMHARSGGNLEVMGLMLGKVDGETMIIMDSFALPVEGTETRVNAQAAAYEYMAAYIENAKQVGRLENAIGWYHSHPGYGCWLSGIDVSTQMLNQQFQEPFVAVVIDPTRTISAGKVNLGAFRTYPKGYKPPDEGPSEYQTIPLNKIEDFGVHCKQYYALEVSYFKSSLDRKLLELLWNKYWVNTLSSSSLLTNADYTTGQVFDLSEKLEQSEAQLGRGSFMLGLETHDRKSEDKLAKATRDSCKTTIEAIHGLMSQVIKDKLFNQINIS
UniProt Q16665: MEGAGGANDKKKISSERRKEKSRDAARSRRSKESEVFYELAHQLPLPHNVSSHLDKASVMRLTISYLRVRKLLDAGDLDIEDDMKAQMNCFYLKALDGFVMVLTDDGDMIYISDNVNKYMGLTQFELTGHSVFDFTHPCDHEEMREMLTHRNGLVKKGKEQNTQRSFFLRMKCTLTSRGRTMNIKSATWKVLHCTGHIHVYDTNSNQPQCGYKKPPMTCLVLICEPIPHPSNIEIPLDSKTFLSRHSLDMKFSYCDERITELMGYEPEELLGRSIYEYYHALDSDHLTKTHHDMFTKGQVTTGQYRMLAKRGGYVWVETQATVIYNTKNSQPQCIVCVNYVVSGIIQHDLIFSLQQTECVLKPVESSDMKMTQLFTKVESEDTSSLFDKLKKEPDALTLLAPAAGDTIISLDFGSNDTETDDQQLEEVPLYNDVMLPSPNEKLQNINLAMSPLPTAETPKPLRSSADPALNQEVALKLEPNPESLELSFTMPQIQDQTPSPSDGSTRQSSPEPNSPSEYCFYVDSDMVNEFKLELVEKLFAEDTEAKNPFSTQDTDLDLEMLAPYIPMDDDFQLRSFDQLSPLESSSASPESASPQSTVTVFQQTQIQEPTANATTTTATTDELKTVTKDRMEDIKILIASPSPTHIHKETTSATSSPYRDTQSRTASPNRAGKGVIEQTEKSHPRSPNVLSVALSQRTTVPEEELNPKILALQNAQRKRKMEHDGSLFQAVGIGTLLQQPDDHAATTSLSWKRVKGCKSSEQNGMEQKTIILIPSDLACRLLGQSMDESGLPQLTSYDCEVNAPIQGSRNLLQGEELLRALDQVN

The target in assay [1] is CSN9 signalosome subunit 5 (CSN5) (human (endogenous in HCT116)) (UniProt Q92905). In words: co-IP; HCT116 cells exogenously expressing HA-HIF1α and MIF-2xFLAG, treated with LPA or PBS; co-immunoprecipitation with endogenous CSN5.
Assay [2] has the same target. Kind of assay: co-IP; Lysates of HCT116 cells treated with LPA or PBS immunoprecipitated with anti-CSN5 antibody; blot with anti-HIF1α or anti-MIF.

Results are given in words; binding and its absence hold for the method and conditions named. Binding seen in cells or lysates may run through a third protein. Some binding calls cover weakened binding; strength is not graded here.

For HA-HIF1α (from UniProt Q16665 1-826), the binding result in assay [1] was “binds”.

As for “hypoxia-inducible factor 1α (HIF1α) (from UniProt Q16665 1-826)”, in assay [2], the binding result is recorded as “binds”.
